This test concerns BDF1 mice, B16 melanoma ip, median survival T/C. Briefly: NCI In Vivo Anticancer Drug Screen. Data for tumor model B16 Melanoma (intraperitoneal) in B6D2F1 (BDF1) mice. The following applies: T/C endpoint: median survival time, higher T/C = longer survival. In a few lines:
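In this screen, activity was judged from survival or tumor size in treated versus vehicle-treated tumor-bearing mice, reported as T/C.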

Setting [1] is: dose: 37.5 mg/kg/injection, schedule: Q01DX009 (ip), vehicle: saline.
The mark [2] stands for this setting: dose: 150.0 mg/kg/injection, schedule: Q01DX009 (ip), vehicle: Klucel (hydroxypropylcellulose) (HPC).
[3] abbreviates: dose: 300.0 mg/kg/injection, schedule: Q01DX009 (ip), vehicle: Klucel (hydroxypropylcellulose) (HPC).
Where [4] appears, read: dose: 300.0 mg/kg/injection, schedule: Q01DX009 (ip), vehicle: saline.
Where [5] appears, read: dose: 50.0 mg/kg/injection, schedule: Q01DX009 (ip), vehicle: saline with Tween-80.

The list is a part of this screen's results and no random one: it is rich in T/C values a quarter to a half above the control, in often repeated tests (any T/C) and in doses without a T/C. Further doses and runs are listed elsewhere. T/C is the treated group as % of the vehicle group. Some entries give survivors of the animals treated and no T/C: the source holds a T/C of zero for them, seemingly a mark for toxic or unscored doses. Some doses without a T/C left all or most animals alive at the check, yet need not have been tolerated: the source hardly ever lists a survival T/C far under the control, and the zero likely stands for such cases as well. Counts of survivors are from the toxicity check (mostly the fifth day) where no day follows; animals may have died later. Schedule codes are those of the source, read here as Q, the interval in days (D) or hours (H), X, the number of doses. Some doses were run more than once; the results are listed from low to high. Where survival is the endpoint, this PubChem deposit counts one and a half times the control or more as active, and values a quarter to a half above the control carry no call in these data; other NCI protocols may use other cut-offs. Some T/C values are followed by the survivors on the day toxicity was checked, most often the fifth; without a count, all were alive then. Signs of the kind (2×) say how often a value occurs here.

On to `CN(C)/N=N/c1nc[nH]c1C(N)=O`, for which the survivor count (dose: 18.75 mg/kg/injection, schedule: Q01DX009 (ip), vehicle: Klucel (hydroxypropylcellulose) (HPC)) was 10 of 10; the survivor count under setting [1] is given as 5 of 6; the survivor count under setting [2] is 6 of 6; the survivor count (dose: 200.0 mg/kg/injection, schedule: Q01DX009 (ip), vehicle: carboxymethylcellulose (CMC)) is recorded as 5 of 6; the survivor count (dose: 200.0 mg/kg/injection, schedule: Q01DX017 (ip), vehicle: saline) is given as 10 of 10; the survivor count under setting [3] is 9 of 10, 10 of 10, 6 of 6. The survivor count under setting [4] was 5 of 6 and 6 of 6; the survivor count (dose: 360.0 mg/kg/injection, schedule: Q01DX009 (ip), vehicle: DMSO) is reported as 9 of 10; the survivor count (dose: 400.0 mg/kg/injection, schedule: Q01DX009 (ip), vehicle: distilled water + Tween-80) is recorded as 7 of 10; the survivor count (dose: 400.0 mg/kg/injection, schedule: Q01DX009 (ip), vehicle: saline) was 8 of 10; the survivor count (dose: 400.0 mg/kg/injection, schedule: Q01DX017 (ip), vehicle: saline) was 9 of 10; the survivor count (dose: 600.0 mg/kg/injection, schedule: Q01DX009 (ip), vehicle: DMSO) was 2 of 10. Further, the T/C by setting is: (dose: 21.6 mg/kg/injection, schedule: Q01DX009 (ip), vehicle: saline with Tween-80) 125 % of control; (dose: 36.0 mg/kg/injection, schedule: Q01DX009 (ip), vehicle: saline with Tween-80) 125 % of control; (dose: 37.5 mg/kg/injection, schedule: Q01DX009 (ip), vehicle: Klucel (hydroxypropylcellulose) (HPC)) 93, 97 (2×), 102, 107, 108, 109, 110, 111, 113, 118, 131, 140 % of control; (dose: 37.5 mg/kg/injection, schedule: Q01DX009 (ip), vehicle: saline with Tween-80, evaluated on day 45) 100, 105, 114, 115, 123 % of control; (dose: 37.5 mg/kg/injection, schedule: Q01DX009 (ip), vehicle: saline with Tween-80, evaluated on day 60) 104 and 115 % of control; under setting [1], 100, 104, 105, 106, 109, 115, 117 [5 of 6 alive], 125 % of control. Further, the T/C runs as follows: (dose: 50.0 mg/kg/injection, schedule: Q01DX009 (ip), vehicle: distilled water + Tween-80) 133 % of control; (dose: 60.0 mg/kg/injection, schedule: Q01DX009 (ip), vehicle: saline with Tween-80) 125 % of control; (dose: 75.0 mg/kg/injection, schedule: Q01DX009 (ip), vehicle: Klucel (hydroxypropylcellulose) (HPC)) 95 [5 of 6 alive], 102, 105, 110, 112, 112 [5 of 6 alive], 112 [9 of 10 alive], 114, 116, 117, 118, 130, 178 % of control; (dose: 75.0 mg/kg/injection, schedule: Q01DX009 (ip), vehicle: saline with Tween-80, evaluated on day 45) 102, 121, 123 (2×), 131 % of control; (dose: 75.0 mg/kg/injection, schedule: Q01DX009 (ip), vehicle: saline with Tween-80, evaluated on day 60) 106, 119, 120 % of control; (dose: 75.0 mg/kg/injection, schedule: Q01DX009 (ip), vehicle: saline) 97, 100, 104, 106, 107, 109 (2×), 114, 115, 128 % of control. The T/C runs as follows: (dose: 100.0 mg/kg/injection, schedule: Q01DX009 (ip), vehicle: saline with Tween-80) 128 and 134 % of control; (dose: 100.0 mg/kg/injection, schedule: Q04DX003 (ip), vehicle: saline with Tween-80, evaluated on day 5) 113 % of control; (dose: 100.0 mg/kg/injection, schedule: Q04DX003 (ip), vehicle: saline with Tween-80, evaluated on day 6) 103 [8 of 9 alive], 104, 112 % of control; under setting [2], 93, 97, 107, 109, 115, 117, 120, 120 [5 of 6 alive], 122, 125, 132 [8 of 10 alive], 137 % of control; (dose: 150.0 mg/kg/injection, schedule: Q01DX009 (ip), vehicle: saline with Tween-80, evaluated on day 45) 110, 121 (2×), 123, 125 % of control; (dose: 150.0 mg/kg/injection, schedule: Q01DX009 (ip), vehicle: saline with Tween-80, evaluated on day 60) 117, 121, 132 % of control. Moreover, the T/C (dose: 150.0 mg/kg/injection, schedule: Q01DX009 (ip), vehicle: saline) is 102, 107, 111, 112, 113, 119, 123, 125, 128, 135 % of control; the T/C (dose: 150.0 mg/kg/injection, schedule: Q04DX005 (ip), vehicle: saline) was 136 % of control; the T/C (dose: 200.0 mg/kg/injection, schedule: Q01DX009 (ip), vehicle: saline with Tween-80, evaluated on day 5) was 128 % of control; the T/C (dose: 200.0 mg/kg/injection, schedule: Q01DX009 (ip), vehicle: saline with Tween-80, evaluated on day 45) is 125 % of control; the T/C (dose: 200.0 mg/kg/injection, schedule: Q01DX009 (ip), vehicle: saline) is 126 % of control; the T/C (dose: 200.0 mg/kg/injection, schedule: Q01DX009 (ip), vehicle: steroid suspending solution) was 134 % of control. The T/C runs as follows: under setting [3], 92, 97, 102, 105, 109, 110, 118, 143 % of control; (dose: 300.0 mg/kg/injection, schedule: Q01DX009 (ip), vehicle: saline with Tween-80, evaluated on day 5) 74 % of control; (dose: 300.0 mg/kg/injection, schedule: Q01DX009 (ip), vehicle: saline with Tween-80, evaluated on day 45) 97 [5 of 6 alive], 107, 112, 125, 130 % of control; (dose: 300.0 mg/kg/injection, schedule: Q01DX009 (ip), vehicle: saline with Tween-80, evaluated on day 60) 102, 105, 134 % of control; under setting [4], 91, 92, 102, 107, 109, 114, 115, 167 % of control; (dose: 400.0 mg/kg/injection, schedule: Q04DX003 (ip), vehicle: saline with Tween-80, evaluated on day 5) 105 % of control. In addition, the T/C (dose: 400.0 mg/kg/injection, schedule: Q04DX003 (ip), vehicle: saline with Tween-80, evaluated on day 6) is 103 [8 of 9 alive], 107 [8 of 9 alive], 112 % of control [8 of 9 alive].

On to `Cc1cccc(NC(=O)Nc2ccccc2)c1C`, for which the survivor count by setting is: (dose: 200.0 mg/kg/injection, schedule: Q01DX009 (ip), vehicle: Klucel (hydroxypropylcellulose) (HPC)) 8 of 10; (dose: 400.0 mg/kg/injection, schedule: Q01DX009 (ip), vehicle: Klucel (hydroxypropylcellulose) (HPC)) 9 of 10.

Turning to `CS(=O)(=O)OCCN1CCC2(CC1)SSC1(CCN(CCOS(C)(=O)=O)CC1)S2`, the survivor count runs as follows: (dose: 12.5 mg/kg/injection, schedule: Q01DX009 (ip), vehicle: saline) 10 of 10; (dose: 25.0 mg/kg/injection, schedule: Q01DX009 (ip), vehicle: saline) 1 of 10.

Turning to `COc1ccc(S(=O)(=O)NC(=S)S)cc1`, the survivor count (dose: 200.0 mg/kg/injection, schedule: Q01DX009 (ip), vehicle: water) was 6 of 10 and the survivor count (dose: 400.0 mg/kg/injection, schedule: Q01DX009 (ip), vehicle: water) was 3 of 10.

As for `Fc1cccc(/C=C2/c3cc(Cl)ccc3-c3c(Cl)cc(Cl)cc32)c1`, the survivor count under setting [5] is reported as 6 of 6.

As for `CN(C)N=Nc1c(Cl)cc(Cl)cc1C(N)=O`, the T/C under setting [5] is 128 % of control.

In the case of `O=S(=O)(O)O.[NH-]CC1(C[NH-])CCCCC1.[Pt+2]`, the T/C runs as follows: (dose: 4.0 mg/kg/injection, schedule: Q04DX003 (ip), vehicle: dextrose) 131 % of control; (dose: 12.0 mg/kg/injection, schedule: Q04DX003 (ip), vehicle: dextrose) 145 % of control [9 of 10 alive on day 10].

In the case of `O=C1OC(C(O)CO)C(O)=C1O` (stereo not given), under “dose: 32.0 mg/kg/injection, schedule: Q01DX009 (ip), vehicle: saline”, the survivor count is 0 of 10.

Regarding `Cc1cc(NCCCCCCCNc2cc(C)nc3cc(N)ccc23)c2ccc(N)cc2n1`, the survivor count (dose: 25.0 mg/kg/injection, schedule: Q01DX009 (ip), vehicle: saline with Tween-80) was 8 of 10.

Values taken from PubChem BioAssay AID192 (DTP/NCI, 2004).
